Test results published in patent publication US20080124335A1 (NATIONAL CEREBRAL AND CARDIOVASCULAR CENTER, published 2008).
No constants are given. Whether binding was seen depends on the method and setting. Some entries that bind do so weakly or less than the wild type.

Amino acid sequences for entries named in this document (tags omitted). A change or cut given only in a name is not applied to a line headed by its entry.
UniProt Q9GZQ4: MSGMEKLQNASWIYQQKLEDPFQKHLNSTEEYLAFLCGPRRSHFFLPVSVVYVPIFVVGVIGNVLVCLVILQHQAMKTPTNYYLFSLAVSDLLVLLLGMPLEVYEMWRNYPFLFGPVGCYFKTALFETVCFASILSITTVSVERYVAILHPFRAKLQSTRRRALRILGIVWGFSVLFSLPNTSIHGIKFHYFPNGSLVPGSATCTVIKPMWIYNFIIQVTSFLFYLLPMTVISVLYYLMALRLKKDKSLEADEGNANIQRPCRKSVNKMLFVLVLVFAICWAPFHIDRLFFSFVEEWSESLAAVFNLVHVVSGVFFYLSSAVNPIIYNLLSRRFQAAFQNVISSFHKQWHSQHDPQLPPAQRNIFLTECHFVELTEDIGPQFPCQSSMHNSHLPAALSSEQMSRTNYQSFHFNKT

Molecular target: human TGR1 (human, UniProt Q9GZQ4 1-415)
Assay: conclusion drawn from the receptor binding test and the calcium assay

ILQRGSGTAAVDFTKKDHTATWGRPFFLFRPRN [human neuromedin S]
binding: binds
